Some targets named below: SPIB (UniProt Q01892); ETV5 (UniProt P41161); ELF4 (UniProt Q99607).
Assay in all cases: DAPPL (digital affinity profiling via proximity ligation, sequencing)
Holding throughout (settings): 10 mM Tris-HCl pH 7.5, 50 mM NaCl, 1 mM DTT, 4% glycerol, room temperature, 30 min; GST-TFs on glutathione beads, 16-mer random dsDNA library, 0.1% …; high values mean tight binding; double strand, one strand shown; scale: fold enrichment (6-mer frequency, TF over GST control)

The chains behind the UniProt entries cited, without tags or fusion partners. Where a name states a change or a piece, a line headed by the entry shows the natural chain unless it says otherwise.
UniProt Q01892: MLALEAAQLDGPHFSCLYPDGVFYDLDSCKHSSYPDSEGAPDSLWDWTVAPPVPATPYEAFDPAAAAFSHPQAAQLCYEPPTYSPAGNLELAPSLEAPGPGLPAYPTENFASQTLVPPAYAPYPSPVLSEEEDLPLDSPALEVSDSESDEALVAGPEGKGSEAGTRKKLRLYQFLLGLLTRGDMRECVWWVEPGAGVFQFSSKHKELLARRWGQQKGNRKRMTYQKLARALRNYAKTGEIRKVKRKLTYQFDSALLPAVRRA
UniProt P41161: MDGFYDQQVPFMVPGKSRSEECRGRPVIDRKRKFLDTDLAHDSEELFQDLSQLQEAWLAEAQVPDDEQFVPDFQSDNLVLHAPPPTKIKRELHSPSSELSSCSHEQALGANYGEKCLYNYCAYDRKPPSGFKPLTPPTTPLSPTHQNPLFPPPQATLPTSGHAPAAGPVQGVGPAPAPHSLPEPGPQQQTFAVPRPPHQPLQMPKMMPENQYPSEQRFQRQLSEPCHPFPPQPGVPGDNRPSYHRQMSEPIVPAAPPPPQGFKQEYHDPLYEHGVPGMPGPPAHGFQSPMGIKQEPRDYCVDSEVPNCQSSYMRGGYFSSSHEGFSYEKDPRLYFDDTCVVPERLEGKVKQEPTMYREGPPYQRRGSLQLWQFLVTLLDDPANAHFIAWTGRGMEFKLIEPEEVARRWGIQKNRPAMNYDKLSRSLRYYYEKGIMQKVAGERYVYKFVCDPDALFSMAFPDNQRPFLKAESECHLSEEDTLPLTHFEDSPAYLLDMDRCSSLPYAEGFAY
UniProt Q99607: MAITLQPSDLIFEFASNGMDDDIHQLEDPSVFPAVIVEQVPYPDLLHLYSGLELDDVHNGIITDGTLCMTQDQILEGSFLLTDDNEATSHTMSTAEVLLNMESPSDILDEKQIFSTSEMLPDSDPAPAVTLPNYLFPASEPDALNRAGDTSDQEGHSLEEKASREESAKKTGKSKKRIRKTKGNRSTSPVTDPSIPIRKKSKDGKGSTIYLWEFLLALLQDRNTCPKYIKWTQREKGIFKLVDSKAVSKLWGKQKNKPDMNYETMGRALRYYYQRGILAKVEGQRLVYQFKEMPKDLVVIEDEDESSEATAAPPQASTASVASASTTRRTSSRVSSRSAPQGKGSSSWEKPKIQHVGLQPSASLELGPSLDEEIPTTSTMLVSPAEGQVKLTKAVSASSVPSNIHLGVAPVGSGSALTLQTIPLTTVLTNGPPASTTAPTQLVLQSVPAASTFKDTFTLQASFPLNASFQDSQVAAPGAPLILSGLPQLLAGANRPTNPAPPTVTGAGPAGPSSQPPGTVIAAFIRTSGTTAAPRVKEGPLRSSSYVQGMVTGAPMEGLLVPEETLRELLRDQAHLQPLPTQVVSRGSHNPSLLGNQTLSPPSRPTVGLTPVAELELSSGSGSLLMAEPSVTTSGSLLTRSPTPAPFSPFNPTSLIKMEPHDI

The next assay addresses T1, FLI1 (UniProt Q01543).
T1 sequence: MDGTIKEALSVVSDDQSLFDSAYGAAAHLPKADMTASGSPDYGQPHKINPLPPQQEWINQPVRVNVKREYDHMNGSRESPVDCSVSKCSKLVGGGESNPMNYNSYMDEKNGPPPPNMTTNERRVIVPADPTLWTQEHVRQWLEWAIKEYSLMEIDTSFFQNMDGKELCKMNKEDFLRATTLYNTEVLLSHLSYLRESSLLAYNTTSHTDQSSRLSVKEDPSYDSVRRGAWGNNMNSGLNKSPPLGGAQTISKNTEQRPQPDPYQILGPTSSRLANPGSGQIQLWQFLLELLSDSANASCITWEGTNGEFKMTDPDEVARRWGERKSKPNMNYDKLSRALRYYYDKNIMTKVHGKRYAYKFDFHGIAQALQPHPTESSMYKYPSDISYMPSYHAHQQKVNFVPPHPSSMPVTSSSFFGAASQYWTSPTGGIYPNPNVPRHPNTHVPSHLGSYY

The next assay concerns the target T2, EHF (UniProt Q9NZC4).
T2 sequence: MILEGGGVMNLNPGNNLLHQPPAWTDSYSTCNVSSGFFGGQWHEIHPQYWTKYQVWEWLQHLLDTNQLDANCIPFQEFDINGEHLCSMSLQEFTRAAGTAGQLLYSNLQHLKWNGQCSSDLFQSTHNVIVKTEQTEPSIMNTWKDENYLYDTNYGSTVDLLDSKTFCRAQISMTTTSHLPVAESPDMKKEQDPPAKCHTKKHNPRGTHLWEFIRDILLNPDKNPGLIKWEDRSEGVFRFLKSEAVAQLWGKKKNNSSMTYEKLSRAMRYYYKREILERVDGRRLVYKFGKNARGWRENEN

The target of the next assay is T3, ETV2 (UniProt O00321).
T3 sequence: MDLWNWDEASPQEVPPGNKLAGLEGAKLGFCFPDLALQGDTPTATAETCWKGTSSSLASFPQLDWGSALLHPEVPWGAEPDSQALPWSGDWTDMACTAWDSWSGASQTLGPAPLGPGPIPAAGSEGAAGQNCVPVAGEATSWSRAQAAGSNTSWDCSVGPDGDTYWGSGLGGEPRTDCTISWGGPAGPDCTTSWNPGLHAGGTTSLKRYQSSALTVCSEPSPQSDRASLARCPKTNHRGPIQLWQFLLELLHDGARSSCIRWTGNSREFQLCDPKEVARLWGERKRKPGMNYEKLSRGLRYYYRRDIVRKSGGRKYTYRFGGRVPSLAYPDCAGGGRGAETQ

The target in another assay is T4, ETV3L (UniProt Q6ZN32).
T4 sequence: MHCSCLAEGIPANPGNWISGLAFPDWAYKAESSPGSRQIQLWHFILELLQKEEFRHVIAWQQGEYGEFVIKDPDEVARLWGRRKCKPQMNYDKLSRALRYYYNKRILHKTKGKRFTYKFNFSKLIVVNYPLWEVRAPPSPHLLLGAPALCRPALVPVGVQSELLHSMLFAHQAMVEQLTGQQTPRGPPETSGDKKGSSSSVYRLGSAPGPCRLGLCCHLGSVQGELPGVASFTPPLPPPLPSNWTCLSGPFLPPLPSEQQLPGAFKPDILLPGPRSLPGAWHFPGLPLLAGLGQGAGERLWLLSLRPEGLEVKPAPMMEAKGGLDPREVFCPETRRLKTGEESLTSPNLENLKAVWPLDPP

The entries are a selection whose mix differs from that of the whole data set. At the low end of the ranking, values are background and their order means little.

In the case of GGAGTC, the binding signal came to 0.232 in the assay with FLI1; 0.235 in the assay with EHF; 0.222 with SPIB; 0.234 with ETV5; 0.215 with ELF4; 0.241 with ETV2. The sequence also showed a binding signal with ETV3L of 0.242.

Turning to GGAGTA, the binding signal worked out at 0.349 with FLI1; 0.343 in the assay with EHF; 0.377 with SPIB; 0.36 with ETV5; 0.344 with ELF4; 0.375 in the assay with ETV2. The sequence further returned a binding signal in the assay with ETV3L of 0.411.

As to GGACAG, the binding signal was 0.585 in the assay with FLI1; 0.588 with EHF; 0.559 in the assay with SPIB; 0.602 with ETV5; 0.556 in the assay with ELF4; 0.523 with ETV2. This sequence yielded a binding signal with ETV3L of 0.565.

For the sequence GGAGGC, the binding signal with FLI1 was determined as 0.23; with EHF, 0.245; with SPIB, 0.26; in the assay with ETV5, 0.236; in the assay with ELF4 it was 0.229; with ETV2, 0.246. This sequence registered a binding signal with ETV3L of 0.269.

As for GTACGT, the binding signal is 0.845 in the assay with FLI1; 0.873 with EHF; 0.893 with SPIB; 0.881 in the assay with ETV5; 0.881 with ELF4; 0.831 in the assay with ETV2. In the assay with ETV3L, this sequence showed a binding signal of 0.912.

Take GACGCC: the binding signal in the assay with FLI1 was 0.835; in the assay with EHF, 0.824; with SPIB, 0.8; in the assay with ETV5, 0.864; with ELF4, 0.834; with ETV2, 0.692. This sequence also returned a binding signal in the assay with ETV3L of 0.883.

Regarding GGGCGC, the binding signal amounted to 0.616 in the assay with FLI1; 0.623 with EHF; 0.6 in the assay with SPIB; 0.617 with ETV5; 0.647 with ELF4; 0.642 with ETV2. Besides, the binding signal with ETV3L is 0.581.

GGGTGT: the binding signal with FLI1 stood at 0.692; with EHF it was 0.775; with SPIB, 0.733; with ETV5, 0.746; in the assay with ELF4 it was 0.818; in the assay with ETV2 it was 0.742. The binding signal with ETV3L turned out to be 0.746.

As to AGCCGA, the binding signal with FLI1 was determined as 0.798; with EHF it was 0.792; with SPIB, 0.792; in the assay with ETV5 it was 0.768; in the assay with ELF4, 0.836; with ETV2, 0.893. The same sequence registered a binding signal in the assay with ETV3L of 0.881.

GTTGGA: the binding signal in the assay with FLI1 came out at 0.437; with EHF, 0.51; in the assay with SPIB, 0.469; with ETV5, 0.487; in the assay with ELF4, 0.459; with ETV2, 0.51. Besides, in the assay with ETV3L, the binding signal is 0.464.

As to GAACGC, the binding signal amounted to 0.701 in the assay with FLI1; 0.742 in the assay with EHF; 0.772 with SPIB; 0.769 in the assay with ETV5; 0.803 with ELF4; 0.718 with ETV2. The binding signal with ETV3L came to 0.783.

Regarding GTCAGG, the binding signal with FLI1 was found to be 0.499; in the assay with EHF, 0.501; in the assay with SPIB it was 0.555; in the assay with ETV5 it was 0.502; in the assay with ELF4, 0.525; with ETV2 it was 0.507. Also, the binding signal in the assay with ETV3L was determined as 0.565.

GTTGTG: the binding signal with FLI1 was 0.945; with EHF, 0.882; with SPIB, 0.844; with ETV5 it was 0.813; with ELF4, 0.875; with ETV2 it was 0.913. Besides, the binding signal with ETV3L was 1.02.

For CGGGAC, the binding signal was 0.548 in the assay with FLI1; 0.574 in the assay with EHF; 0.561 with SPIB; 0.534 with ETV5; 0.514 in the assay with ELF4; 0.456 with ETV2. The binding signal with ETV3L is 0.511.

As to TCAGTG, the binding signal turned out to be 0.757 with FLI1; 0.799 with EHF; 0.78 in the assay with SPIB; 0.744 in the assay with ETV5; 0.753 with ELF4; 0.757 with ETV2. The same sequence yielded a binding signal with ETV3L of 0.83.

AGAGTT: the binding signal turned out to be 0.772 with FLI1; 0.764 with EHF; 0.777 with SPIB; 0.806 with ETV5; 0.776 in the assay with ELF4; 0.791 with ETV2. In addition, in the assay with ETV3L, the binding signal is 0.847.

For the sequence CAGTTA, the binding signal is 0.755 with FLI1; 0.764 with EHF; 0.738 with SPIB; 0.762 in the assay with ETV5; 0.776 with ELF4; 0.788 in the assay with ETV2. This sequence registered a binding signal with ETV3L of 0.676.

Take CGCATG: the binding signal was found to be 0.653 in the assay with FLI1; 0.677 with EHF; 0.631 in the assay with SPIB; 0.62 in the assay with ETV5; 0.677 with ELF4; 0.677 with ETV2. In the assay with ETV3L, the binding signal came out at 0.656.

In the case of AGGGAG, the binding signal was found to be 0.366 with FLI1; 0.341 with EHF; 0.342 with SPIB; 0.396 with ETV5; 0.362 with ELF4; 0.36 in the assay with ETV2. Further, the binding signal with ETV3L was 0.357.

For the sequence TGGGGA, the binding signal with FLI1 is 0.888; with EHF, 0.861; with SPIB it was 0.765; with ETV5, 0.805; with ELF4, 0.762; in the assay with ETV2 it was 0.757. This sequence also yielded a binding signal with ETV3L of 0.854.

GTAGTC: the binding signal in the assay with FLI1 came out at 0.697; with EHF, 0.711; with SPIB, 0.694; in the assay with ETV5, 0.641; in the assay with ELF4, 0.7; with ETV2 it was 0.706. In addition, in the assay with ETV3L, the binding signal is 0.647.

CGTTAG: the binding signal with FLI1 was determined as 0.77; in the assay with EHF, 0.79; with SPIB, 0.828; with ETV5 it was 0.826; with ELF4, 0.807; with ETV2, 0.964. In addition, the binding signal in the assay with ETV3L stood at 0.808.

As for GGACGC, the binding signal in the assay with FLI1 was determined as 0.398; with EHF it was 0.406; with SPIB, 0.4; in the assay with ETV5, 0.401; in the assay with ELF4, 0.389; with ETV2, 0.339. Further, the binding signal in the assay with ETV3L stood at 0.398.

As for ACCGCG, the binding signal with FLI1 was found to be 0.913; with EHF, 0.793; with SPIB, 0.833; in the assay with ETV5 it was 0.819; with ELF4 it was 0.868; in the assay with ETV2 it was 0.947. The binding signal with ETV3L was 0.85.

As to CGCAAG, the binding signal was found to be 0.853 in the assay with FLI1; 0.809 with EHF; 0.771 in the assay with SPIB; 0.77 with ETV5; 0.857 with ELF4; 0.715 in the assay with ETV2. Besides, the binding signal with ETV3L stood at 0.821.

On to CAAGGC, for which the binding signal amounted to 0.926 in the assay with FLI1; 0.828 in the assay with EHF; 0.892 with SPIB; 0.841 with ETV5; 0.793 in the assay with ELF4; 0.884 with ETV2. In the assay with ETV3L, this sequence returned a binding signal of 0.817.

As for TGTGAG, the binding signal with FLI1 was 0.365; in the assay with EHF it was 0.339; in the assay with SPIB, 0.327; in the assay with ETV5, 0.338; with ELF4, 0.337; with ETV2 it was 0.313. In addition, the binding signal with ETV3L stood at 0.339.

For the sequence CACAGT, the binding signal in the assay with FLI1 amounted to 0.814; in the assay with EHF, 0.703; with SPIB, 0.731; with ETV5, 0.75; in the assay with ELF4 it was 0.751; in the assay with ETV2 it was 0.754. In the assay with ETV3L, this sequence came in with a binding signal of 0.769.

Turning to GCAGTC, the binding signal was found to be 0.462 with FLI1; 0.438 with EHF; 0.448 in the assay with SPIB; 0.444 in the assay with ETV5; 0.488 in the assay with ELF4; 0.459 in the assay with ETV2. In the assay with ETV3L, this sequence returned a binding signal of 0.492.

For the sequence GCGCCA, the binding signal with FLI1 came to 0.76; with EHF, 0.745; with SPIB, 0.806; with ETV5, 0.751; with ELF4, 0.77; with ETV2 it was 0.914. For the same sequence, in the assay with ETV3L, the binding signal amounted to 0.804.

(Values after publication PMC7862700.)
